Laboratory results taken from article PMC8377144 (Signal Transduction and Targeted Therapy, 2021).

Experiment: general procedure: Boc solid-phase peptide synthesis; active ester chemistry
Conditions: whole synthesis

Ac-TFFYGGSRGKRNNFKTEEY-OH
final HPLC purity: 95%
